Experimental data: PubChem BioAssay AID238 (DTP/NCI, 2004)
The list is a part of this screen's results and no random one: its compounds were picked by chemical class. Other doses and runs of a compound may be missing. T/C is the treated group as % of the vehicle group. Some doses have a count of surviving animals in place of a T/C: the source holds a T/C of zero for them, seemingly a mark for toxic or unscored doses. Some survivor counts are full or nearly so, which does not show that the dose was tolerated: survival well below the control is almost never listed, so the zero probably covers shortened survival too. Survivors were counted at the toxicity check, usually on the fifth day, unless a day is given; later deaths do not show. Schedules are NCI's codes, read here as Q, the interval in days (D) or hours (H), X, the number of doses. Some entries were tested several times; the values are given in rising order. Where survival is the endpoint, the PubChem record calls one and a half times the control and up active, and a quarter to a half above the control has no call in these data; cut-offs in other NCI protocols can differ. Some T/C values carry the count of animals alive at the toxicity check (mostly the fifth day); without a count or a note in brackets, all were alive then.

System: CAF1 mice, leiomyosarcoma No.2 ip, survival T/C%
Assay: NCI In Vivo Anticancer Drug Screen. Data for tumor model Leiomyosarcoma (No. 2) (intraperitoneal) in CAF1 mice
Details: T/C endpoint: mean survival time, schedule: Q01DX010 (ip), vehicle: saline, higher T/C = longer survival
Experimental: The antitumor activity of compounds was measured in mice bearing transplantable tumors. Survival or tumor size were measured and the results are expressed as the measurement made in the treated group (T) divided by the measurement made in the vehicle treated control group (C). The tumor model used in this assay is Leiomyosarcoma (No. 2) (intraperitoneal) in CAF1 mice

In the case of CC[C@@H](C)[C@@H]1NC(=O)/C(=C(\C)O)C1=O.c1ccc(CNCCNCc2ccccc2)cc1, the T/C (dose: 10.0 mg/kg/injection) is reported as 100 % of control, the T/C (dose: 14.0 mg/kg/injection) is reported as 104 % of control and the T/C (dose: 20.0 mg/kg/injection) is reported as 104 % of control. For the same compound, the T/C (dose: 30.0 mg/kg/injection) was 100 % of control.

With CN(N=O)C(=N)N[N+](=O)[O-] the T/C (dose: 8.0 mg/kg/injection) was 125 and 126 % of control, the T/C (dose: 16.0 mg/kg/injection) was 133 and 153 % of control and the survivor count (dose: 32.0 mg/kg/injection) was 6 of 6. For the same compound, the survivor count (dose: 64.0 mg/kg/injection) was 4 of 6 and 6 of 6.

For NC1CCCCC1.O=P(O)(N(CCCl)CCCl)N1CC1, the T/C (dose: 1.25 mg/kg/injection) was 162 % of control, the T/C (dose: 2.5 mg/kg/injection) was 152 and 154 % of control and the T/C (dose: 5.0 mg/kg/injection) was 175 [5 of 6 alive] and 260 % of control. For the same compound, the T/C (dose: 10.0 mg/kg/injection) was 216 [5 of 6 alive] and 231 % of control and the T/C (dose: 20.0 mg/kg/injection) was 300 % of control.

Cc1[nH]c(=O)[nH]c(=O)c1N(CCCl)CCCl was tested, and the T/C (dose: 0.25 mg/kg/injection) was 116 % of control, the T/C (dose: 0.5 mg/kg/injection) was 144 % of control and the T/C (dose: 1.0 mg/kg/injection) was 208 % of control. For the same compound, the T/C (dose: 2.0 mg/kg/injection) was 180 % of control.
